From paper doi:10.1101/2021.06.09.447721
Results are given in words; binding and its absence hold for the method and conditions named. Binding seen in cells or lysates may run through a third protein. Some entries that bind do so weakly or less than the wild type.

Amino acid sequences for entries named in this document (tags omitted). Residues count along the entry.
UniProt Q01959, whole entry: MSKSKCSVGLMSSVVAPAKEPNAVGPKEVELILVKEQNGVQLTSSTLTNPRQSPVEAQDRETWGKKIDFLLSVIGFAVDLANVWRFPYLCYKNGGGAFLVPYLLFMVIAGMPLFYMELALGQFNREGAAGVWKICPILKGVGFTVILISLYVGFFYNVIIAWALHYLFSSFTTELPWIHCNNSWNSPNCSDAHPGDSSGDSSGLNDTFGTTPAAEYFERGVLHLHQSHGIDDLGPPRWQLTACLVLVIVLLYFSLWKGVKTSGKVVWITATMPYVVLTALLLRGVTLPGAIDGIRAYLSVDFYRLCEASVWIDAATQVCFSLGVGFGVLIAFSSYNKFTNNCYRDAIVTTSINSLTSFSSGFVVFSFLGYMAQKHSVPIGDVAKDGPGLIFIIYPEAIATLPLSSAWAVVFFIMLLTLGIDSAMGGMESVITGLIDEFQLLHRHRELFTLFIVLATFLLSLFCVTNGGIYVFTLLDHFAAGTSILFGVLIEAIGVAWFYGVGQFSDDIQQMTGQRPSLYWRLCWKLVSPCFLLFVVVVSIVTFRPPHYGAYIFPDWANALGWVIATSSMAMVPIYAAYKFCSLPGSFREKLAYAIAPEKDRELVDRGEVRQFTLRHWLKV
UniProt Q01959, 579-620: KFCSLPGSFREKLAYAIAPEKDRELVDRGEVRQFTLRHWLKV
UniProt P23975, whole entry: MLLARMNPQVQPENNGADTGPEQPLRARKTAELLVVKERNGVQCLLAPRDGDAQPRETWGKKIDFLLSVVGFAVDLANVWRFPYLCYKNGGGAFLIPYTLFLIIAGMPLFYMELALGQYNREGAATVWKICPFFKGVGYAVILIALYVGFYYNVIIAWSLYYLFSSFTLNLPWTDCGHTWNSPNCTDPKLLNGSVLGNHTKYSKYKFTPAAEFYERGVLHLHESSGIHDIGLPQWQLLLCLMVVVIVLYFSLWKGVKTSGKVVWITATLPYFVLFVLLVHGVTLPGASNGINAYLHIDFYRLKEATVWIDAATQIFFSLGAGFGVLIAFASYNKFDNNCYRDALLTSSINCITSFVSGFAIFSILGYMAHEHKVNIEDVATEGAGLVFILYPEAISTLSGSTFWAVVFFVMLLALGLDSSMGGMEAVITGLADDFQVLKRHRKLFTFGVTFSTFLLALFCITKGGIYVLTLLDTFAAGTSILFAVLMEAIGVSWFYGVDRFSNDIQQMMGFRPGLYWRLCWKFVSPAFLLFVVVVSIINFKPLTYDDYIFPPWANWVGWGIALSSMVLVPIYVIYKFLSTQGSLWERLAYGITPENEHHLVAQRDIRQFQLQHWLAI
UniProt P23975, 570-617: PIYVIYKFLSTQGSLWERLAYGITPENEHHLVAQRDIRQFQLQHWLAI
UniProt P30531, whole entry: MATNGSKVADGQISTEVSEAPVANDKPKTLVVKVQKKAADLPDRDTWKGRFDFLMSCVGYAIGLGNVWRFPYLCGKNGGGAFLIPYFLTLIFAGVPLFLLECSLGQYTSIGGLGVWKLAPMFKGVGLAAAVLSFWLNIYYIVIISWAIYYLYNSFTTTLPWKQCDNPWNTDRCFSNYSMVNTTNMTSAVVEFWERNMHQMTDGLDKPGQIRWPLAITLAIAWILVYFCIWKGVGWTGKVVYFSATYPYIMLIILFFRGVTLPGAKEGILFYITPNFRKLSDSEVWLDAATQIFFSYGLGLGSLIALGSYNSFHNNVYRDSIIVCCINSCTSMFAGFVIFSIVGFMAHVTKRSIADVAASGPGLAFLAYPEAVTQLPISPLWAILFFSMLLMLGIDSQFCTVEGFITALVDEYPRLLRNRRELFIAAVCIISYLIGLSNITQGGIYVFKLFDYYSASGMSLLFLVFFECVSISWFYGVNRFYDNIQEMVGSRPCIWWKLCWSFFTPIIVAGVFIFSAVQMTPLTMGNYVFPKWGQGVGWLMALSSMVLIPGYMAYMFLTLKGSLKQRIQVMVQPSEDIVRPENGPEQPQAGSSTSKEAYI
UniProt P04406, whole entry: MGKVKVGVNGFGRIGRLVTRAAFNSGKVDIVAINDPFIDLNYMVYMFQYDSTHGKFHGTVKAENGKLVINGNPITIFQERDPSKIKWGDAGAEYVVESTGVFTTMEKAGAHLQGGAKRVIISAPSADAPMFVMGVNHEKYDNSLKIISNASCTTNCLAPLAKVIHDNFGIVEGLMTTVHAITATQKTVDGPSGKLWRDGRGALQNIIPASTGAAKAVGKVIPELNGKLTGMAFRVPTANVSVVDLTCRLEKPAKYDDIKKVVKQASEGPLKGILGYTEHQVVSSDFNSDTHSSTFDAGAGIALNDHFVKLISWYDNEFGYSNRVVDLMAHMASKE
UniProt Q13257, whole entry: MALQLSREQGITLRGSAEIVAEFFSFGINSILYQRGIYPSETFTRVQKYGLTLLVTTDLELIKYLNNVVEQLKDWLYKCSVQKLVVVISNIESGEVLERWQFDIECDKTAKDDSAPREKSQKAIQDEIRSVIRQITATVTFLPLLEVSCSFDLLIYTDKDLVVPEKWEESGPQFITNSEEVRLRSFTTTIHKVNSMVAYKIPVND
UniProt O60566, whole entry: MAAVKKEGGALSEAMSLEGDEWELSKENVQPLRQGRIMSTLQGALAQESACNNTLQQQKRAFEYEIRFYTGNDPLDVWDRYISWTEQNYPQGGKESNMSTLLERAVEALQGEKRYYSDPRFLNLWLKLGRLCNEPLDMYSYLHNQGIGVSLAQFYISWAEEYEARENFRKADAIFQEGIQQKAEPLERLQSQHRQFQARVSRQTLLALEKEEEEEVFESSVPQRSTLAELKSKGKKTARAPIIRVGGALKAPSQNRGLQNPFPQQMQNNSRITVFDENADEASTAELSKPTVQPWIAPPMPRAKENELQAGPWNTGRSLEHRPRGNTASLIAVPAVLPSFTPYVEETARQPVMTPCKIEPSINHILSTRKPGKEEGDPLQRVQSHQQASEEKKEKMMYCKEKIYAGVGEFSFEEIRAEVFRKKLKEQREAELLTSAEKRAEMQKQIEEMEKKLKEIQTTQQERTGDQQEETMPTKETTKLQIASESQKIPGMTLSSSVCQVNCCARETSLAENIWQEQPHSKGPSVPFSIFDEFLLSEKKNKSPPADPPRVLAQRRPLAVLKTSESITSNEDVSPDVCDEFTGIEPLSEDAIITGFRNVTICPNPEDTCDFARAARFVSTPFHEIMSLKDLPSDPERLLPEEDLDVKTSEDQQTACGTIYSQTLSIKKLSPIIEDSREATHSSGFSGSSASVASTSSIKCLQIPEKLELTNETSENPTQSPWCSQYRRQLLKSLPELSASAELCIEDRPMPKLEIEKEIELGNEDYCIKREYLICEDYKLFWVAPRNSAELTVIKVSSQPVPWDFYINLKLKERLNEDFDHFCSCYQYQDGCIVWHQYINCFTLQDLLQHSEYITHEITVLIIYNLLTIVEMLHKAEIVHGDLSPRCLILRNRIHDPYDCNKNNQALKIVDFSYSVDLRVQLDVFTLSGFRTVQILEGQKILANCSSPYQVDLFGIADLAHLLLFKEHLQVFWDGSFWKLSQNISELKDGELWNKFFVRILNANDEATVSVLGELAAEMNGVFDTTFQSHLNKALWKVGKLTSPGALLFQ

Columns and labels:
YFP-hDAT (human) = YFP-hDAT (human) (UniProt Q01959); test: co-IP
YFP-hNET (human) = YFP-hNET (human) (UniProt P23975); test: co-IP
YFP-hGAT1 (human) = YFP-hGAT1 (human) (UniProt P30531); test: co-IP
GST-hNET-Ct (human) = GST-hNET-Ct (human) (UniProt P23975); test: pull-down
GST-hDAT-Ct (human) = GST-hDAT-Ct (human) (UniProt Q01959); test: pull-down

Row | binding (YFP-hDAT (human)) | binding (YFP-hNET (human)) | binding (YFP-hGAT1 (human)) | binding (GST-hNET-Ct (human)) | binding (GST-hDAT-Ct (human)) | Substance
1 | no binding | no binding | no binding | – | – | glyceraldehyde 3-phosphate dehydrogenase (GAPDH) (from UniProt P04406 1-335)
2 | binds | binds | binds | binds | binds | MAD2 (endogenous) (from UniProt Q13257 1-205)
3 | binds | binds | binds | binds | binds | BubR1 (from UniProt O60566 1-1050)
